Laboratory results published in PubChem BioAssay AID743255 (National Center for Advancing Translational Sciences (NCATS), 2014).
About 910 (0.23%) of roughly 390,000 compounds were called active. Inconclusive results, whose numbers are uncertain, are shown with a selection of clear calls. Calls come from the whole dose curve; as a rule, active = well fitted inhibition curve with a large enough effect; inconclusive = small, poorly fitted or top-dose-only effect; inactive = no such curve, though single readings can be large or run the other way. A potency beside an inconclusive call is a rough fit, not a confirmed value.

Protein sequences, listed by entry. Tags and fused reporters are not part of them. Lines headed by an entry give the natural chain unless they say otherwise; changes in a name come on top.
UniProt O94782: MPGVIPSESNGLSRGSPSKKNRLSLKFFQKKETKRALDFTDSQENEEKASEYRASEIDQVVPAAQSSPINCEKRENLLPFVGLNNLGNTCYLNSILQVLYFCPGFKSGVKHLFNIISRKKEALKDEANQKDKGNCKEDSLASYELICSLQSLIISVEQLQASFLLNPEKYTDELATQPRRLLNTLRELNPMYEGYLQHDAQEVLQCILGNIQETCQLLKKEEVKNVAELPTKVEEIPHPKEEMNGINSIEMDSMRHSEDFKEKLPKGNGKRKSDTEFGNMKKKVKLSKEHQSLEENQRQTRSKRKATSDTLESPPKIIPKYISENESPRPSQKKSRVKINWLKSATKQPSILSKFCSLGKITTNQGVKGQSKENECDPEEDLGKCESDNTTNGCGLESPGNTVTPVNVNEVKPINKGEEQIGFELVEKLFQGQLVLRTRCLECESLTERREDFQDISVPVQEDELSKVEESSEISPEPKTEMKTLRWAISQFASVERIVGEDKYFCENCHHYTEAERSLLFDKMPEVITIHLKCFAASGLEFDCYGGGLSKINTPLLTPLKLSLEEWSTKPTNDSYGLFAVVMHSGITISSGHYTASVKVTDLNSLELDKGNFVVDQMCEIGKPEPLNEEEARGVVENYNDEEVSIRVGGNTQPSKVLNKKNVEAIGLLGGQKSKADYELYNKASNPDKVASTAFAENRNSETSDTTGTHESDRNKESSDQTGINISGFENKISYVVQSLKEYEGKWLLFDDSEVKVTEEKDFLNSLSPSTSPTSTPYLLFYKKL

Each molecule was assayed against Ubiquitin carboxyl-terminal hydrolase 1 (Homo sapiens) (UniProt O94782) (assay: Inhibitors of USP1/UAF1: Primary Screen). Conditions: recombinant USP1/UAF1, Ub-Rhodamine cleavage fluorescence; activity change, negative = inhibition: at 57.1 µM (top of the series).
Outline: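 1 nM enzyme complex + cpd, 15 min RT; start with Ub-Rho 150nM final; kinetic fluorescence ex 480/em 540, 6 reads q60 s. Buffer 50mM HEPES pH 7.8, 0.5mM EDTA, 0.1 mg/ml BSA, 1mM TCEP, 0.01% Tween-20.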
% is set by controls: 0 for no effect and ±100 for the full control effect; potency is the fitted concentration of half-maximal effect.
Note: nearly all actives have a fitted effect of over 60% in size.

Q: How did the Potency turn out when C=CC[C@H](CC(=O)N(CCO)Cc1ccccc1)C(=O)N[C@H](COC(=O)[C@@H](CC=C)Cc1ccc(F)cc1)Cc1ccccc1 was run?
A: inconclusive: 31.6 µM [inhibitor, partial curve]

Q: With COc1cccc(/C=C/c2onc(C)c2S(=O)(=O)N2CCC(C(=O)N3CCCCC3)CC2)c1 as the molecule, how does the Potency read?
A: inconclusive: 0.1 µM [inhibitor, full curve, poor fit]

Q: With COCc1cc(C)nc2sc(C(=O)Nc3ccccc3O)c(N)c12 as the molecule, how does the Potency read?
A: inactive

Q: How did the Potency turn out when CCC1Nc2ncnc(N3CCCCC3)c2N(Cc2ccc(C)cc2)C1=O (centres undefined) was run?
A: inconclusive: 44.7 µM [inhibitor, partial curve, poor fit]

Q: COc1ccc(CCC(=O)NCc2ccc3c(c2)CCN3C(=O)c2ccc(Cl)cc2)cc1 was tested. Which Potency did it give?
A: inconclusive: 316 µM [inhibitor, partial curve, poor fit]

Q: With O=C(NN(C(=O)C1CC1)c1nc2ccccc2s1)C1CC1 as the molecule, how does the Potency read?
A: inactive

Q: For COc1cc(/C=C/C(=O)OCC(=O)NCc2ccco2)ccc1OCC#N, which Potency is on record?
A: inconclusive: 0.562 µM [inhibitor, full curve, poor fit]

Q: For CCCCCN(C(=O)CCC(=O)OCC(=O)NCCc1ccccc1)c1c(N)n(CCCC)c(=O)[nH]c1=O, which Potency is on record?
A: inconclusive: 0.251 µM [inhibitor, full curve, poor fit]

Q: COC(=O)C1=COC(C)C2CN3CCc4c([nH]c5ccccc45)C3CC12 (centres undefined) was tested. Which Potency did it give?
A: inactive

Q: For COCCN1C(=O)C(=O)/C(=C(/O)c2ccc(S(=O)(=O)N3CCCCC3)cc2)C1c1ccc(OC)c(OC)c1 (centres undefined), which Potency is on record?
A: inconclusive: 31.6 µM [inhibitor, partial curve]

Q: For O=S(=O)(CCN1C=CC(C(F)(F)F)=NCC1)c1ccc(Cl)cc1Cl, which Potency is on record?
A: inactive

Q: With COc1cccc(/C=C2\SC(=S)N(CCCC(=O)N(CCO)c3ccccc3)C2=O)c1 as the molecule, how does the Potency read?
A: inconclusive: 39.8 µM [inhibitor, partial curve]

Q: Which Potency does the source give for Cc1ccc(-c2[nH]c3c(c2-c2c(-n4cccc4)n(C)c(=O)[nH]c2=O)c(=O)[nH]c(=O)n3C)cc1 here?
A: inconclusive: 0.398 µM [inhibitor, full curve]

Q: For COc1ccccc1CNC(=O)C(C)n1ccc2cc(S(=O)(=O)N3CCCC3)ccc21 (centres undefined), which Potency is on record?
A: inconclusive: 0.251 µM [inhibitor, full curve, poor fit]

Q: S=c1nc(COc2ccccc2)[nH]c2ccccc12 was tested. Which Potency did it give?
A: inconclusive: 44.7 µM [inhibitor, partial curve, poor fit]

Q: Cc1ccccc1CNC(=O)Cc1ccc(NC(=O)N2CCCCc3ccccc32)cc1 was tested. Which activity change, negative = inhibition did it give?
A: inconclusive: -34.7% [inhibitor]

Q: With Cc1[nH]n2c(=O)cc(-c3ccc(Cl)cc3)nc2c1-c1ccccc1 as the molecule, how does the Potency read?
A: inconclusive: 70.8 µM [inhibitor, partial curve, poor fit]

Q: Which Potency does the source give for Nc1ccc(O)c(-c2nc3ccccc3s2)c1 here?
A: inconclusive: 50.1 µM [inhibitor, partial curve, poor fit]

Q: How did the Potency turn out when COc1ccc(-c2cc(C(=O)Oc3ccc(C)cc3)c3cc(C)ccc3n2)cc1 was run?
A: inconclusive: 35.5 µM [inhibitor, partial curve]

Q: How did the Potency turn out when CCc1ccc(N2CN(Cc3cccnc3)CNC2=S)cc1 was run?
A: inconclusive: 56.2 µM [inhibitor, partial curve, poor fit]

Q: For CCC(C)Sc1cc(-c2nc3ccccn3c2NC2CCCCC2)ccc1OC (centres undefined), which Potency is on record?
A: inconclusive: 1.26 µM [inhibitor, full curve]

Q: With COc1ccc(NC(=O)CCS(=O)(=O)c2nc(-c3ccc4c(c3)OCO4)cc(C(F)(F)F)n2)cc1 as the molecule, how does the Potency read?
A: inconclusive: 0.251 µM [inhibitor, full curve, poor fit]

Q: For Cc1c(C(=O)N2CCCC2)oc2c1-c1nn(CC(=O)NCc3ccccc3Br)cc1CC2, which Potency is on record?
A: inconclusive: 28.2 µM [inhibitor, single point]

Q: For N#Cc1c(N)sc(=S)c2c1CCCCC2, which Potency is on record?
A: inconclusive: 35.5 µM [inhibitor, partial curve]

Q: How did the Potency turn out when COc1ccc(NC(=S)Nc2cc(-c3ccccc3)[nH]n2)cc1Cl was run?
A: inactive

Q: Which Potency does the source give for COC(=O)CNC(=O)Cn1nc(C)c([N+](=O)[O-])c1C here?
A: inconclusive: 7.94 µM [inhibitor, partial curve]

Q: How did the Potency turn out when Cc1ccc(C2=NS(=O)(=O)N(C)C(C(=O)NC(C)c3ccccc3)=C2)cc1 (centres undefined) was run?
A: inactive

Q: For CCc1ccc(C(=O)NC2CCCCC2)s1, which Potency is on record?
A: inactive

Q: With CCc1nc(SC)ncc1C(=O)N1CCN(c2cc(Cl)ccc2C)CC1 as the molecule, how does the Potency read?
A: inconclusive: 1.41 µM [inhibitor, full curve, poor fit]

Q: Cn1nc(-c2ccccn2)nc2c(=O)n(C)c(=O)nc1-2 was tested. Which Potency did it give?
A: active: 0.0316 µM

Q: NS(=O)(=O)c1ccc(NC(=O)COC(=O)c2ccc([N+](=O)[O-])s2)cc1 was tested. Which Potency did it give?
A: inconclusive: 31.6 µM [inhibitor, partial curve, poor fit]

Q: How did the Potency turn out when O=C(NNC(=O)c1cc(S(=O)(=O)N2CCOCC2)c(Cl)cc1Cl)c1ccccc1F was run?
A: inconclusive: 10 µM [inhibitor, partial curve, poor fit]

Q: COc1cccc(-c2nc(NCc3cccnc3)c3ccccc3n2)c1O was tested. Which Potency did it give?
A: inconclusive: 50.1 µM [inhibitor, partial curve, poor fit]

Q: NC1=NC[C@H](c2ccccc2)N1CCc1cccc(F)c1 was tested. Which Potency did it give?
A: inconclusive: 7.08 µM [inhibitor, full curve]

Q: OCCCn1c(CCNc2nc(-c3ccc(Cl)cc3)cs2)nc2cc(C(F)(F)F)ccc21 was tested. Which Potency did it give?
A: inconclusive: 3.55 µM [inhibitor, full curve, poor fit]

Q: How did the Potency turn out when COc1ccccc1CNC(=O)C1CCC(=O)N(CCCN2CCCC2=O)C1 (centres undefined) was run?
A: inconclusive: 0.199 µM [inhibitor, full curve]

Q: Which Potency does the source give for CCn1c(SCc2ccccc2C)nc(=O)c2c(C(=O)OC)cc(C3CC3)nc21 here?
A: inconclusive: 25.1 µM [inhibitor, partial curve, poor fit]

Q: For O=C(COC(=O)CCSc1ccc(Cl)cc1)NCc1ccc(Cl)cc1, which Potency is on record?
A: inconclusive: 44.7 µM [inhibitor, partial curve]

Q: How did the Potency turn out when CCOc1ccc(Nc2cc(Nc3ccccc3OCC)nc(C=C(C#N)C#N)n2)cc1 was run?
A: inconclusive: 31.6 µM [inhibitor, partial curve]
